Reference: paper doi:10.1101/2025.06.30.662258
Where two headings read alike, the source gives them in different places. No constants are given. Whether binding was seen depends on the method and setting. Binding seen in cells or lysates may run through a third protein. Here binding means that the protein was enriched with, or labelled near, the bait; the list need not be complete. Each block holds one molecule with its values, some of them ahead of it.

By UniProt entry, the sequences of proteins in these tests, tags left out.
UniProt Q99496: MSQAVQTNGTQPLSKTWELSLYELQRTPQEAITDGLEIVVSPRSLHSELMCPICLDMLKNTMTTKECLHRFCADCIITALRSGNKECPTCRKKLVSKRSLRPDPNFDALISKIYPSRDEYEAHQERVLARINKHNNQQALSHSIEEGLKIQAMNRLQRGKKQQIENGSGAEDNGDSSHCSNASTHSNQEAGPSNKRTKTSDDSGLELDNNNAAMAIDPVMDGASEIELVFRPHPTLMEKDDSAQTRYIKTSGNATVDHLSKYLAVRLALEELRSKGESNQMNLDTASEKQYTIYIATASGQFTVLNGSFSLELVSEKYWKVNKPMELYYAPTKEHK
UniProt P35226: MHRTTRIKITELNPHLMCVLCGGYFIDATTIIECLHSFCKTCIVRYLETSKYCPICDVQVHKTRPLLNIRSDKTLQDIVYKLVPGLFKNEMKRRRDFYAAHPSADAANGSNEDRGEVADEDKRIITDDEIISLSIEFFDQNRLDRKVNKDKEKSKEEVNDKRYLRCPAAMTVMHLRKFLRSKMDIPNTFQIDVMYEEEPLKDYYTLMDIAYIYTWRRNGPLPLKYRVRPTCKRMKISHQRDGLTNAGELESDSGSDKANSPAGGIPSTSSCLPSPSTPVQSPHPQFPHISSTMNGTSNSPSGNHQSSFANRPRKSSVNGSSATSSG

How the values were obtained:
Fibrillarin (FBL) [1] = target: T1, Fibrillarin (FBL) (UniProt P22087); assay: affinity purification with mass spectrometry
T1 sequence: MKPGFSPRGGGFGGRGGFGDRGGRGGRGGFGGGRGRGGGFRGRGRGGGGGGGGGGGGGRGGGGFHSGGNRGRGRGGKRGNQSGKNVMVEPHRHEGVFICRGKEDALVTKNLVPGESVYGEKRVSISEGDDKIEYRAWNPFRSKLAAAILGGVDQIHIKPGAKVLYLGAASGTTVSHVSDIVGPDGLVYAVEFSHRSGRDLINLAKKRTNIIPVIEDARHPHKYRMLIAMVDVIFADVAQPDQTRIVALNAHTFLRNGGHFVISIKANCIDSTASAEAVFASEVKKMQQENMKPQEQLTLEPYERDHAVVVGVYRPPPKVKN

Fibrillarin (FBL) [2] = target: T1, Fibrillarin (FBL); assay: affinity purification with mass spectrometry; remark: listed apart in the source

binding (Fibrillarin (FBL) [1]): binds
Molecule: RING1B (from UniProt Q99496 1-336)

binding (Fibrillarin (FBL) [1]): binds
Molecule: BMI1 (from UniProt P35226 1-326)

binding (Fibrillarin (FBL) [2]): binds
B1: USP36 (Ubiquitin-Specific Protease 36) (enzyme, UniProt Q9P275 1-1123)
chain: MPIVDKLKEALKPGRKDSADDGELGKLLASSAKKVLLQKIEFEPASKSFSYQLEALKSKYVLLNPKTEGASRHKSGDDPPARRQGSEHTYESCGDGVPAPQKVLFPTERLSLRWERVFRVGAGLHNLGNTCFLNATIQCLTYTPPLANYLLSKEHARSCHQGSFCMLCVMQNHIVQAFANSGNAIKPVSFIRDLKKIARHFRFGNQEDAHEFLRYTIDAMQKACLNGCAKLDRQTQATTLVHQIFGGYLRSRVKCSVCKSVSDTYDPYLDVALEIRQAANIVRALELFVKADVLSGENAYMCAKCKKKVPASKRFTIHRTSNVLTLSLKRFANFSGGKITKDVGYPEFLNIRPYMSQNNGDPVMYGLYAVLVHSGYSCHAGHYYCYVKASNGQWYQMNDSLVHSSNVKVVLNQQAYVLFYLRIPGSKKSPEGLISRTGSSSLPGRPSVIPDHSKKNIGNGIISSPLTGKRQDSGTMKKPHTTEEIGVPISRNGSTLGLKSQNGCIPPKLPSGSPSPKLSQTPTHMPTILDDPGKKVKKPAPPQHFSPRTAQGLPGTSNSNSSRSGSQRQGSWDSRDVVLSTSPKLLATATANGHGLKGNDESAGLDRRGSSSSSPEHSASSDSTKAPQTPRSGAAHLCDSQETNCSTAGHSKTPPSGADSKTVKLKSPVLSNTTTEPASTMSPPPAKKLALSAKKASTLWRATGNDLRPPPPSPSSDLTHPMKTSHPVVASTWPVHRARAVSPAPQSSSRLQPPFSPHPTLLSSTPKPPGTSEPRSCSSISTALPQVNEDLVSLPHQLPEASEPPQSPSEKRKKTFVGEPQRLGSETRLPQHIREATAAPHGKRKRKKKKRPEDTAASALQEGQTQRQPGSPMYRREGQAQLPAVRRQEDGTQPQVNGQQVGCVTDGHHASSRKRRRKGAEGLGEEGGLHQDPLRHSCSPMGDGDPEAMEESPRKKKKKKRKQETQRAVEEDGHLKCPRSAKPQDAVVPESSSCAPSANGWCPGDRMGLSQAPPVSWNGERESDVVQELLKYSSDKAYGRKVLTWDGKMSAVSQDAIEDSRQARTETVVDDWDEEFDRGKEKKIKKFKREKRRNFNAFQKLQTRRNFWSVTHPAKAASLSYRR
